Laboratory results reported in the supplement of paper PMC8612539.
Converted amounts (≈) assume the structure as drawn. This continues a long series; more values of the same kind are listed elsewhere.

Test system: Escherichia coli
Experiment: minimum inhibitory concentration (MIC)
Experimental: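 Broth microdilution MIC (Sensititre BOPO7F bovine plate, CLSI methods) of 19 antimicrobials against field isolates of P. multocida, M. haemolytica, H. somni (deep nasopharyngeal swabs) and E. coli, Enterococcus spp. (rectal swabs) from weaned dairy heifers. Incubation 16-24 h at 35 C. MIC is the lowest concentration preventing visible growth. Values with <= or > lie at the tested range limits. Trimethoprim-sulfamethoxazole is given as the trimethoprim component of a 1:19 mixture.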

For `CCCN1C[C@H](C)[C@@H](O)[C@](C)(O)[C@@H](CC)OC(=O)[C@H](C)[C@@H](O[C@H]2C[C@@](C)(OC)[C@@H](O)[C@H](C)O2)[C@H](C)[C@@H](O[C@@H]2O[C@H](C)C[C@H](N(C)C)[C@H]2O)[C@](C)(O)C[C@H]1C` [Gamithromycin], the minimum inhibitory concentration (isolate (source animal id): 1) was > 8 µg/mL, the minimum inhibitory concentration (isolate (source animal id): 2) was 4 µg/mL (≈ 5.15 µM) and the minimum inhibitory concentration (isolate (source animal id): 3) was 8 µg/mL (≈ 10.3 µM). For the same compound, the minimum inhibitory concentration (isolate (source animal id): 4) was 8 µg/mL (≈ 10.3 µM), the minimum inhibitory concentration (isolate (source animal id): 5) was 8 µg/mL (≈ 10.3 µM) and the minimum inhibitory concentration (isolate (source animal id): 6) was 4 µg/mL (≈ 5.15 µM). For the same compound, the minimum inhibitory concentration (isolate (source animal id): 7) was 4 µg/mL (≈ 5.15 µM), the minimum inhibitory concentration (isolate (source animal id): 17) was > 8 µg/mL and the minimum inhibitory concentration (isolate (source animal id): 18) was 8 µg/mL (≈ 10.3 µM). The minimum inhibitory concentration (isolate (source animal id): 19) was 8 µg/mL (≈ 10.3 µM), the minimum inhibitory concentration (isolate (source animal id): 20) was 4 µg/mL (≈ 5.15 µM) and the minimum inhibitory concentration (isolate (source animal id): 21) was 8 µg/mL (≈ 10.3 µM). For the same compound, the minimum inhibitory concentration (isolate (source animal id): 22) was 8 µg/mL (≈ 10.3 µM), the minimum inhibitory concentration (isolate (source animal id): 23) was 8 µg/mL (≈ 10.3 µM) and the minimum inhibitory concentration (isolate (source animal id): 24) was 8 µg/mL (≈ 10.3 µM). It also gave a minimum inhibitory concentration (isolate (source animal id): 25) of 8 µg/mL (≈ 10.3 µM), a minimum inhibitory concentration (isolate (source animal id): 26) of 8 µg/mL (≈ 10.3 µM) and a minimum inhibitory concentration (isolate (source animal id): 27) of 4 µg/mL (≈ 5.15 µM). The minimum inhibitory concentration (isolate (source animal id): 28) was 4 µg/mL (≈ 5.15 µM), the minimum inhibitory concentration (isolate (source animal id): 29) was 8 µg/mL (≈ 10.3 µM) and the minimum inhibitory concentration (isolate (source animal id): 30) was 4 µg/mL (≈ 5.15 µM). For the same compound, the minimum inhibitory concentration (isolate (source animal id): 31) was 4 µg/mL (≈ 5.15 µM), the minimum inhibitory concentration (isolate (source animal id): 32) was 4 µg/mL (≈ 5.15 µM) and the minimum inhibitory concentration (isolate (source animal id): 33) was 4 µg/mL (≈ 5.15 µM). The minimum inhibitory concentration (isolate (source animal id): 34) was 4 µg/mL (≈ 5.15 µM), the minimum inhibitory concentration (isolate (source animal id): 35) was 8 µg/mL (≈ 10.3 µM) and the minimum inhibitory concentration (isolate (source animal id): 36) was 4 µg/mL (≈ 5.15 µM). It also gave a minimum inhibitory concentration (isolate (source animal id): 37) of 4 µg/mL (≈ 5.15 µM), a minimum inhibitory concentration (isolate (source animal id): 38) of 8 µg/mL (≈ 10.3 µM) and a minimum inhibitory concentration (isolate (source animal id): 39) of 8 µg/mL (≈ 10.3 µM). The minimum inhibitory concentration (isolate (source animal id): 40) was 4 µg/mL (≈ 5.15 µM), the minimum inhibitory concentration (isolate (source animal id): 41) was > 8 µg/mL and the minimum inhibitory concentration (isolate (source animal id): 42) was 4 µg/mL (≈ 5.15 µM). The minimum inhibitory concentration (isolate (source animal id): 43) was 4 µg/mL (≈ 5.15 µM), the minimum inhibitory concentration (isolate (source animal id): 44) was 8 µg/mL (≈ 10.3 µM) and the minimum inhibitory concentration (isolate (source animal id): 45) was 8 µg/mL (≈ 10.3 µM). The minimum inhibitory concentration (isolate (source animal id): 46) was 4 µg/mL (≈ 5.15 µM), the minimum inhibitory concentration (isolate (source animal id): 47) was 4 µg/mL (≈ 5.15 µM) and the minimum inhibitory concentration (isolate (source animal id): 48) was 8 µg/mL (≈ 10.3 µM). The minimum inhibitory concentration (isolate (source animal id): 49) was 4 µg/mL (≈ 5.15 µM), the minimum inhibitory concentration (isolate (source animal id): 50) was 4 µg/mL (≈ 5.15 µM) and the minimum inhibitory concentration (isolate (source animal id): 51) was 8 µg/mL (≈ 10.3 µM). For the same compound, the minimum inhibitory concentration (isolate (source animal id): 52) was 4 µg/mL (≈ 5.15 µM), the minimum inhibitory concentration (isolate (source animal id): 53) was 8 µg/mL (≈ 10.3 µM) and the minimum inhibitory concentration (isolate (source animal id): 54) was 2 µg/mL (≈ 2.57 µM). The minimum inhibitory concentration (isolate (source animal id): 55) was 8 µg/mL (≈ 10.3 µM), the minimum inhibitory concentration (isolate (source animal id): 56) was 8 µg/mL (≈ 10.3 µM) and the minimum inhibitory concentration (isolate (source animal id): 57) was > 8 µg/mL. For the same compound, the minimum inhibitory concentration (isolate (source animal id): 58) was 8 µg/mL (≈ 10.3 µM), the minimum inhibitory concentration (isolate (source animal id): 59) was 8 µg/mL (≈ 10.3 µM) and the minimum inhibitory concentration (isolate (source animal id): 60) was 4 µg/mL (≈ 5.15 µM). For the same compound, the minimum inhibitory concentration (isolate (source animal id): 61) was > 8 µg/mL, the minimum inhibitory concentration (isolate (source animal id): 62) was 8 µg/mL (≈ 10.3 µM) and the minimum inhibitory concentration (isolate (source animal id): 63) was 8 µg/mL (≈ 10.3 µM). For the same compound, the minimum inhibitory concentration (isolate (source animal id): 64) was 8 µg/mL (≈ 10.3 µM), the minimum inhibitory concentration (isolate (source animal id): 65) was > 8 µg/mL and the minimum inhibitory concentration (isolate (source animal id): 66) was > 8 µg/mL. It also gave a minimum inhibitory concentration (isolate (source animal id): 67) of 4 µg/mL (≈ 5.15 µM), a minimum inhibitory concentration (isolate (source animal id): 68) of 8 µg/mL (≈ 10.3 µM) and a minimum inhibitory concentration (isolate (source animal id): 69) of 8 µg/mL (≈ 10.3 µM). The minimum inhibitory concentration (isolate (source animal id): 70) was > 8 µg/mL, the minimum inhibitory concentration (isolate (source animal id): 71) was 8 µg/mL (≈ 10.3 µM) and the minimum inhibitory concentration (isolate (source animal id): 72) was 4 µg/mL (≈ 5.15 µM). For the same compound, the minimum inhibitory concentration (isolate (source animal id): 73) was 8 µg/mL (≈ 10.3 µM), the minimum inhibitory concentration (isolate (source animal id): 74) was 8 µg/mL (≈ 10.3 µM) and the minimum inhibitory concentration (isolate (source animal id): 75) was 8 µg/mL (≈ 10.3 µM). For the same compound, the minimum inhibitory concentration (isolate (source animal id): 76) was 8 µg/mL (≈ 10.3 µM), the minimum inhibitory concentration (isolate (source animal id): 77) was 4 µg/mL (≈ 5.15 µM) and the minimum inhibitory concentration (isolate (source animal id): 78) was 8 µg/mL (≈ 10.3 µM). For the same compound, the minimum inhibitory concentration (isolate (source animal id): 79) was 8 µg/mL (≈ 10.3 µM), the minimum inhibitory concentration (isolate (source animal id): 80) was 4 µg/mL (≈ 5.15 µM) and the minimum inhibitory concentration (isolate (source animal id): 81) was 8 µg/mL (≈ 10.3 µM). For the same compound, the minimum inhibitory concentration (isolate (source animal id): 82) was > 8 µg/mL, the minimum inhibitory concentration (isolate (source animal id): 83) was 4 µg/mL (≈ 5.15 µM) and the minimum inhibitory concentration (isolate (source animal id): 84) was 8 µg/mL (≈ 10.3 µM). The minimum inhibitory concentration (isolate (source animal id): 85) was 8 µg/mL (≈ 10.3 µM), the minimum inhibitory concentration (isolate (source animal id): 86) was > 8 µg/mL and the minimum inhibitory concentration (isolate (source animal id): 87) was 8 µg/mL (≈ 10.3 µM). For the same compound, the minimum inhibitory concentration (isolate (source animal id): 88) was 8 µg/mL (≈ 10.3 µM), the minimum inhibitory concentration (isolate (source animal id): 89) was 8 µg/mL (≈ 10.3 µM) and the minimum inhibitory concentration (isolate (source animal id): 90) was > 8 µg/mL. The minimum inhibitory concentration (isolate (source animal id): 91) was 8 µg/mL (≈ 10.3 µM), the minimum inhibitory concentration (isolate (source animal id): 92) was 4 µg/mL (≈ 5.15 µM) and the minimum inhibitory concentration (isolate (source animal id): 93) was 4 µg/mL (≈ 5.15 µM). The minimum inhibitory concentration (isolate (source animal id): 94) was > 8 µg/mL, the minimum inhibitory concentration (isolate (source animal id): 95) was 4 µg/mL (≈ 5.15 µM) and the minimum inhibitory concentration (isolate (source animal id): 96) was 4 µg/mL (≈ 5.15 µM). For the same compound, the minimum inhibitory concentration (isolate (source animal id): 97) was 4 µg/mL (≈ 5.15 µM), the minimum inhibitory concentration (isolate (source animal id): 189) was 8 µg/mL (≈ 10.3 µM) and the minimum inhibitory concentration (isolate (source animal id): 190) was 8 µg/mL (≈ 10.3 µM). It also gave a minimum inhibitory concentration (isolate (source animal id): 191) of 8 µg/mL (≈ 10.3 µM), a minimum inhibitory concentration (isolate (source animal id): 192) of 4 µg/mL (≈ 5.15 µM) and a minimum inhibitory concentration (isolate (source animal id): 193) of 4 µg/mL (≈ 5.15 µM). It also gave a minimum inhibitory concentration (isolate (source animal id): 194) of 8 µg/mL (≈ 10.3 µM), a minimum inhibitory concentration (isolate (source animal id): 195) of 8 µg/mL (≈ 10.3 µM) and a minimum inhibitory concentration (isolate (source animal id): 196) of 8 µg/mL (≈ 10.3 µM). It also gave a minimum inhibitory concentration (isolate (source animal id): 197) of 8 µg/mL (≈ 10.3 µM), a minimum inhibitory concentration (isolate (source animal id): 198) of 4 µg/mL (≈ 5.15 µM) and a minimum inhibitory concentration (isolate (source animal id): 199) of 8 µg/mL (≈ 10.3 µM). For the same compound, the minimum inhibitory concentration (isolate (source animal id): 200) was 8 µg/mL (≈ 10.3 µM), the minimum inhibitory concentration (isolate (source animal id): 201) was 8 µg/mL (≈ 10.3 µM) and the minimum inhibitory concentration (isolate (source animal id): 202) was 8 µg/mL (≈ 10.3 µM). The minimum inhibitory concentration (isolate (source animal id): 203) was 8 µg/mL (≈ 10.3 µM), the minimum inhibitory concentration (isolate (source animal id): 204) was 8 µg/mL (≈ 10.3 µM) and the minimum inhibitory concentration (isolate (source animal id): 205) was > 8 µg/mL. For the same compound, the minimum inhibitory concentration (isolate (source animal id): 206) was 8 µg/mL (≈ 10.3 µM), the minimum inhibitory concentration (isolate (source animal id): 207) was 8 µg/mL (≈ 10.3 µM) and the minimum inhibitory concentration (isolate (source animal id): 208) was 8 µg/mL (≈ 10.3 µM). The minimum inhibitory concentration (isolate (source animal id): 209) was 8 µg/mL (≈ 10.3 µM), the minimum inhibitory concentration (isolate (source animal id): 210) was 8 µg/mL (≈ 10.3 µM) and the minimum inhibitory concentration (isolate (source animal id): 211) was 8 µg/mL (≈ 10.3 µM). The minimum inhibitory concentration (isolate (source animal id): 212) was 4 µg/mL (≈ 5.15 µM), the minimum inhibitory concentration (isolate (source animal id): 213) was 8 µg/mL (≈ 10.3 µM) and the minimum inhibitory concentration (isolate (source animal id): 214) was 8 µg/mL (≈ 10.3 µM). The minimum inhibitory concentration (isolate (source animal id): 215) was 4 µg/mL (≈ 5.15 µM), the minimum inhibitory concentration (isolate (source animal id): 216) was 4 µg/mL (≈ 5.15 µM) and the minimum inhibitory concentration (isolate (source animal id): 217) was 8 µg/mL (≈ 10.3 µM). For the same compound, the minimum inhibitory concentration (isolate (source animal id): 218) was 4 µg/mL (≈ 5.15 µM), the minimum inhibitory concentration (isolate (source animal id): 219) was 8 µg/mL (≈ 10.3 µM) and the minimum inhibitory concentration (isolate (source animal id): 220) was 8 µg/mL (≈ 10.3 µM).
